These are yes or no findings as the source states them, for the method shown. In cells and extracts the contact can be indirect. Binding can be weak; no strength is given.

Sequences of proteins named here, by UniProt entry; tags and fusion partners are left off. A change or cut given only in a name is not applied to a line headed by its entry.
UniProt Q562E2: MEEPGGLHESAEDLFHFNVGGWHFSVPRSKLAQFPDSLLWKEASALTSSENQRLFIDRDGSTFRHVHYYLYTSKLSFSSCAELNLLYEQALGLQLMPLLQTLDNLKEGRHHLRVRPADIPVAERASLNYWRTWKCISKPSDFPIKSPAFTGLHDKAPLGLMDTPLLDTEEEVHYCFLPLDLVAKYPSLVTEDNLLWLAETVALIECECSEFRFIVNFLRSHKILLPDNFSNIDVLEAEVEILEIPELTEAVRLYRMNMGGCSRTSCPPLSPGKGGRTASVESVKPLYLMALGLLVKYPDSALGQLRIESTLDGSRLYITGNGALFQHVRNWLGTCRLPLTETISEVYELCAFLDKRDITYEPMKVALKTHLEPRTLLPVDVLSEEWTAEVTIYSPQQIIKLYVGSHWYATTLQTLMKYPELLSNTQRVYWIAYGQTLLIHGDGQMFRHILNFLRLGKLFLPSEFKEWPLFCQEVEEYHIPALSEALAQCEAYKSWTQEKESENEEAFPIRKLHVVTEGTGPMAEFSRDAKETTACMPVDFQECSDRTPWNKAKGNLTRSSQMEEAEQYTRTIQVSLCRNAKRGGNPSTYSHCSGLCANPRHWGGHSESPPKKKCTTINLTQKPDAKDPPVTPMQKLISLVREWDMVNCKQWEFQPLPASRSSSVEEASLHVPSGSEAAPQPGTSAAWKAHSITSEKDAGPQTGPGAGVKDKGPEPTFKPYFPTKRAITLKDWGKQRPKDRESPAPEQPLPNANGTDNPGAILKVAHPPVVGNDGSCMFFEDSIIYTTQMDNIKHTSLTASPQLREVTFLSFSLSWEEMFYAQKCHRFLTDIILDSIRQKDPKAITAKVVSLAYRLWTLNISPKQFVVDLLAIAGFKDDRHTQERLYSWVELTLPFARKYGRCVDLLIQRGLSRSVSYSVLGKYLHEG
UniProt O09106: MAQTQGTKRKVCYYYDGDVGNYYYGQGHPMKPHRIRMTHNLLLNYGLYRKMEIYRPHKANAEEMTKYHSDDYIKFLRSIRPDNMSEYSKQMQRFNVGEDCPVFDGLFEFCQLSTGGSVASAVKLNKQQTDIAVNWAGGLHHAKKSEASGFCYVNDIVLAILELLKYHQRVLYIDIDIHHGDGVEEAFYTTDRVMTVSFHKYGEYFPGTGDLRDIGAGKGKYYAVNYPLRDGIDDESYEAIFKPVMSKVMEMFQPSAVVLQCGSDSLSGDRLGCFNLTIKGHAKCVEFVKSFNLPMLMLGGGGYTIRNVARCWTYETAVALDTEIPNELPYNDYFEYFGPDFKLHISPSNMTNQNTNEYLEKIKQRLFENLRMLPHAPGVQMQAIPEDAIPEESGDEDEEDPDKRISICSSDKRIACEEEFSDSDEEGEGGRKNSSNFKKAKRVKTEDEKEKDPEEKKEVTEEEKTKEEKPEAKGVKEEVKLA
UniProt P70288: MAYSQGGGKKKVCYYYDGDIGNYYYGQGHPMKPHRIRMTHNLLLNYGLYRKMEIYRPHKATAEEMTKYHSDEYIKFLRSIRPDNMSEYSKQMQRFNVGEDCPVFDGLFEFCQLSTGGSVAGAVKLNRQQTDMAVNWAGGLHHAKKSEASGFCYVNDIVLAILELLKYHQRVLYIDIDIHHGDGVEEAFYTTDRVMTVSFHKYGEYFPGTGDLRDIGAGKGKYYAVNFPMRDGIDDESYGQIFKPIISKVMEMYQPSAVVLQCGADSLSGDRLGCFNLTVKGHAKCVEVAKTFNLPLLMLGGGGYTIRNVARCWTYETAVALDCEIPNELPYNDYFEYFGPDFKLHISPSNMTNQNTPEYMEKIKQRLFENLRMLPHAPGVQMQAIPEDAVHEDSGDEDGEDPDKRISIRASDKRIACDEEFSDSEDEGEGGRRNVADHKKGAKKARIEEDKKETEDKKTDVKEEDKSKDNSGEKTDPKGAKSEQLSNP

In assay [1] the target is KCTD19 (mouse (endogenous in testis)) (UniProt Q562E2). Briefly: co-IP; endogenous ZFP541 or KCTD19 immunoprecipitated with affinity-purified rabbit antibodies crosslinked to protein A-Dynabeads from chromatin extracts of WT mouse testes; beads washed with low salt extraction buffer; immunoblot. In general terms: In western blotting, separated proteins are transferred to a membrane and probed.

Assay [2] deals with T1, ZFP541 (mouse (endogenous in testis)) (UniProt Q0GGX2).
T1 sequence: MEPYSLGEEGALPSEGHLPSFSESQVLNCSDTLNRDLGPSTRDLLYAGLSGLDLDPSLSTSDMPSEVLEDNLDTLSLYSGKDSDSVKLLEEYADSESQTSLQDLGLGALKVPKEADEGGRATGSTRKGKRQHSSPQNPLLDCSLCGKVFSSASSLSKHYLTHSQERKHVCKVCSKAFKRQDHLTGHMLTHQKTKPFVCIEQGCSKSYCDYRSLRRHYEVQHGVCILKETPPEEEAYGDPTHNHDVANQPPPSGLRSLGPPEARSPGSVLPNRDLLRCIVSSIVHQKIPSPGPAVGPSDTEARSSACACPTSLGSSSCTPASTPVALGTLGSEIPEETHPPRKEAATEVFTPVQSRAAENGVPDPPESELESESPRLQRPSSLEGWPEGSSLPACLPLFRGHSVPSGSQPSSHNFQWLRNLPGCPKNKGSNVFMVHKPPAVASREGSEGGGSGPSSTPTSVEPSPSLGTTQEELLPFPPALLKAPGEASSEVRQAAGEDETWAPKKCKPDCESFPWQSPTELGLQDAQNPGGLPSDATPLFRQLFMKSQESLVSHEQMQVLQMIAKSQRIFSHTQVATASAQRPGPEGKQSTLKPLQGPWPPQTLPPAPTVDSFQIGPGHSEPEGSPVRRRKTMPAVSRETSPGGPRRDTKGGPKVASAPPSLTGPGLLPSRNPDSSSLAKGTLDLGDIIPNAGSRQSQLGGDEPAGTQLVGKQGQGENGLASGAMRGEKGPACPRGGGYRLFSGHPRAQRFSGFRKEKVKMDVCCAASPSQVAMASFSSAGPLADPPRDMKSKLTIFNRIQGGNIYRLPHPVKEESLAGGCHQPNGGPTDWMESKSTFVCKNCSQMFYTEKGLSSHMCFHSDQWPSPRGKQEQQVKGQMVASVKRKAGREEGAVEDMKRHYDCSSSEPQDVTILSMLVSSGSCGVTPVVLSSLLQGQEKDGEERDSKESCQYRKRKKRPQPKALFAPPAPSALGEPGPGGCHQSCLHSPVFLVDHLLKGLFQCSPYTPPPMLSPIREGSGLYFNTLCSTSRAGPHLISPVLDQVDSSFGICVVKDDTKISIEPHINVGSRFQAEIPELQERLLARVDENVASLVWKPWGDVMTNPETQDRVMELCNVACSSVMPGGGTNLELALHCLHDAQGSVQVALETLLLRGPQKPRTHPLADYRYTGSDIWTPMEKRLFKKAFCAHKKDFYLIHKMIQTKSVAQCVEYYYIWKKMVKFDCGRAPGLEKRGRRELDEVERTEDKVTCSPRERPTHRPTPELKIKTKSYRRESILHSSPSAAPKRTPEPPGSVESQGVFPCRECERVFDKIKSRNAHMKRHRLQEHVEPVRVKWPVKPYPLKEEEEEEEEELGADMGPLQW
The description is as above.

In the case of “HDAC1 (from UniProt O09106 1-482) (enzyme)”, the binding entry in assay [1] is “binds”.

KCTD19 (from UniProt Q562E2-2): in assay [2], the binding entry is listed as “binds”. On to “HDAC2 (from UniProt P70288 1-488) (enzyme)”, for which, in assay [1], the binding result is “binds”.

B1: terminal deoxynucleotidyltransferase-interacting factor 1 (TDIF1) (protein, UniProt Q99LB0 1-328)
chain: MGATGDTEQPRGPGGAERGGLELGDAGAAGQPVLTNPWNIMIKHRQVQRRGRRSQMTTSFTDPAISMDLLRAVLQPSINEEIQGVFNKYMKFFQKAALNVRDNVGEEVDAEQLIQEACRSCLEQAKLLFSDGEKVIPRLAHELPGIKRGRQAEEESHRGSPIPKKRKGRPPGHVLSNDRAAAGMVWKQKSCEPIRREGPKWDPARLNESTTFVLGSRANKALGMGGTRGRIYIKHPHLFKYAADPQDKHWLAEQHHMRATGGKMAYLLIEEDIRDLAASDDYRGCLDLKLEELKSFVLPSWMVEKMRKYMETLRTENEHRAAEAPPQT
For B1, the binding result in assay [1] is “binds”.

B2: ZFP541 (protein, UniProt Q0GGX2 1-1363)
chain: MEPYSLGEEGALPSEGHLPSFSESQVLNCSDTLNRDLGPSTRDLLYAGLSGLDLDPSLSTSDMPSEVLEDNLDTLSLYSGKDSDSVKLLEEYADSESQTSLQDLGLGALKVPKEADEGGRATGSTRKGKRQHSSPQNPLLDCSLCGKVFSSASSLSKHYLTHSQERKHVCKVCSKAFKRQDHLTGHMLTHQKTKPFVCIEQGCSKSYCDYRSLRRHYEVQHGVCILKETPPEEEAYGDPTHNHDVANQPPPSGLRSLGPPEARSPGSVLPNRDLLRCIVSSIVHQKIPSPGPAVGPSDTEARSSACACPTSLGSSSCTPASTPVALGTLGSEIPEETHPPRKEAATEVFTPVQSRAAENGVPDPPESELESESPRLQRPSSLEGWPEGSSLPACLPLFRGHSVPSGSQPSSHNFQWLRNLPGCPKNKGSNVFMVHKPPAVASREGSEGGGSGPSSTPTSVEPSPSLGTTQEELLPFPPALLKAPGEASSEVRQAAGEDETWAPKKCKPDCESFPWQSPTELGLQDAQNPGGLPSDATPLFRQLFMKSQESLVSHEQMQVLQMIAKSQRIFSHTQVATASAQRPGPEGKQSTLKPLQGPWPPQTLPPAPTVDSFQIGPGHSEPEGSPVRRRKTMPAVSRETSPGGPRRDTKGGPKVASAPPSLTGPGLLPSRNPDSSSLAKGTLDLGDIIPNAGSRQSQLGGDEPAGTQLVGKQGQGENGLASGAMRGEKGPACPRGGGYRLFSGHPRAQRFSGFRKEKVKMDVCCAASPSQVAMASFSSAGPLADPPRDMKSKLTIFNRIQGGNIYRLPHPVKEESLAGGCHQPNGGPTDWMESKSTFVCKNCSQMFYTEKGLSSHMCFHSDQWPSPRGKQEQQVKGQMVASVKRKAGREEGAVEDMKRHYDCSSSEPQDVTILSMLVSSGSCGVTPVVLSSLLQGQEKDGEERDSKESCQYRKRKKRPQPKALFAPPAPSALGEPGPGGCHQSCLHSPVFLVDHLLKGLFQCSPYTPPPMLSPIREGSGLYFNTLCSTSRAGPHLISPVLDQVDSSFGICVVKDDTKISIEPHINVGSRFQAEIPELQERLLARVDENVASLVWKPWGDVMTNPETQDRVMELCNVACSSVMPGGGTNLELALHCLHDAQGSVQVALETLLLRGPQKPRTHPLADYRYTGSDIWTPMEKRLFKKAFCAHKKDFYLIHKMIQTKSVAQCVEYYYIWKKMVKFDCGRAPGLEKRGRRELDEVERTEDKVTCSPRERPTHRPTPELKIKTKSYRRESILHSSPSAAPKRTPEPPGSVESQGVFPCRECERVFDKIKSRNAHMKRHRLQEHVEPVRVKWPVKPYPLKEEEEEEEEELGADMGPLQW
For the molecule B2, the binding entry in assay [1] was “binds”.

These data come from paper PMC8169937.
